From EP0322396A1, “Benzimidazole derivatives, their preparation and use” (Gerot-Pharmazeutika Gesellschaft m.b.H., priority 1987, dated 1989)
For at least one compound, name, drawing or mass did not settle the structure.

Test system: Blutdruck der Ratte
Assay: Blood pressure lowering in the rat after i.v. administration
Type: in vivo
Settings: i.v. 0,1 mg/kg, compared with Prazosin 0,01 mg/kg

## CC(O)CC(=O)N1CCC(n2c(=O)[nH]c3ccccc32)CC1 (stereo not shown) [Beispiel 1, 1-(3-Hydroxybutyryl)-4-(2-oxo-1-benzimidazolinyl)-piperidin]
  senkt den Blutdruck der Ratte: so stark und nachhaltig, wie Prazosin in einer Dosierung von 0,01 mg/kg
